From patent US20120309622A1, “HERBICIDES CONTAINING SUBSTITUTED THIEN-3-YL-SULPHONYLAMINIO(THIO)CARBONYL-TRIAZOLIN(ETHI)ONES” (BAYER INTELLECTUAL PROPERTY GMBH, priority 2001, published 2012)
Several values for one entry are separate records, joined by “and”; a condition that tells them apart may be missing. Equal entries are not always repeated. At least one read-out could not be matched to a standard name with certainty.

System: Bromus secalinus
Assay: Post-emergence test/greenhouse, % damage after three weeks
Type: in vivo
Experimental: The expected action for a given combination of two herbicides can be calculated as follows (cf. COLBY, S. R.: “Calculating synergistic and antagonistic responses of herbicide combinations”, Weeds 15, pages 20-22, 1967):
If the actual damage exceeds the calculated value, the combination has a superadditive effect, that is to say a synergistic effect.
Test plants are grown under control conditions (temperature and light).
Following the spray application, the plant containers are kept in the greenhouse under constant light and temperature conditions.
After three weeks, the degree of damage to the plants is rated in % damage in comparison to the development of the untreated control.

COC(=O)c1csc(C)c1S(=O)(=O)NC(=O)n1nc(OC)n(C)c1=O [I-2]
Bromus secalinus observed (2 g of ai/ha): 90% and 80% | Bromus secalinus observed (4 g of ai/ha): 80% and 90%
